Laboratory results taken from publication PMC5874249.
No constants are given. Whether binding was seen depends on the method and setting. In cells and extracts the contact can be indirect. Some results given as binding are weak or reduced against the parent protein; the word gives no strength.

The chains behind the UniProt entries cited, without tags or fusion partners. Where a name states a change or a piece, a line headed by the entry shows the natural chain unless it says otherwise. A line that says so, or that is headed by a name, gives the form on record, which may keep a tag or linker.
Full-length NTAP–GSK3β (P49841, form named): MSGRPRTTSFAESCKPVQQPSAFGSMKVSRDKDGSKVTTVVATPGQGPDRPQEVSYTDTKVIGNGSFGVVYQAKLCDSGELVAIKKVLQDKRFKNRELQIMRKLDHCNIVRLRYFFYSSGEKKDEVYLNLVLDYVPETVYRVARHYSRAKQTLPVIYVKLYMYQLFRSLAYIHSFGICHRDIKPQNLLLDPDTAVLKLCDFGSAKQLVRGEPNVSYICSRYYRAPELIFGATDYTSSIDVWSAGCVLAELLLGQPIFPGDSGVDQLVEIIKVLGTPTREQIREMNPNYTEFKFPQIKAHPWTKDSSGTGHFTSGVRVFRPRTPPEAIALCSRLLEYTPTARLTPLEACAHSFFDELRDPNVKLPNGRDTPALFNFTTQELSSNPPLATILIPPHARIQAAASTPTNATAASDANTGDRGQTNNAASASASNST

Biological target: Full-length NTAP–GSK3β (UniProt P49841)
Test: pull-down; NTAP–GSK3β constructs co-transfected with Flag–LSD1 constructs in 293 cells, precipitated with streptavidin beads/resin, Western blot with anti-Flag, anti-STIP1, anti-HSP90 and anti-CBP; lysis buffer 20 mM Tris-Cl pH 7.4, 25 mM NaCl, 0.1% NP-40

- binding: binds
Substance: endogenous STIP1 (from UniProt P31948 1-543)
